Laboratory results from patent US20260053958A1 (GRAFTON THERAPEUTICS SÀRL, priority 2022, published 2026).

Assay: general procedure: Fmoc solid-phase peptide synthesis; Fmoc-Rink-Amide MBHA resin, 0.71 mmol/g
Conditions: whole synthesis; for isolated yield: overall
[1] = scale of the general procedure 0.33 mmol

Work on “(4-amino-3-Br)-D-Phe-c[Cys-(3-Br)-Tyr-D-Trp-Lys-Val-Cys]-Thr-NH2” yielded an isolated yield (scale 0.5 mmol) of 2.40%, a crude mass (scale 0.5 mmol) of 262 mg and an isolated mass (scale 0.5 mmol) of 6.3 mg.
“(4-amino-3-Cl)-D-Phe-c[Cys-(3-Cl)-Tyr-D-Trp-Lys-Val-Cys]-Thr-NH2” gave a crude mass of 313 mg, an isolated mass of 19.1 mg and an isolated yield [1] of 6.1%.
“(4-amino-3-Cl)-D-Phe-c[Cys-(3-I)-Tyr-D-Trp-Lys-Val-Cys]-Thr-NH2 [Compound 2]” showed a crude mass of 293 mg, an isolated mass of 13.76 mg and an isolated yield [1] of 4.7%.
Work on “(4-amino-3-F)-D-Phe-c[Cys-(3-F)-Tyr-D-Trp-Lys-Val-Cys]-Thr-NH2” yielded an isolated yield (scale 0.5 mmol) of 3.15%, a crude mass (scale 0.5 mmol) of 285 mg and an isolated mass (scale 0.5 mmol) of 9.45 mg.
“(4-amino-3-I)-D-Phe-c[Cys-(3-Cl)-Tyr-D-Trp-Lys-Val-Cys]-Thr-NH2 [Compound 1]” gave a crude mass of 305 mg, an isolated mass of 14.5 mg and an isolated yield [1] of 4.75%.
